# Reference: PubChem BioAssay AID2551 (National Center for Advancing Translational Sciences (NCATS), 2010)
# Chains of the proteins cited; added tags and fusions are not shown. Lines headed by an entry give the natural chain unless they say otherwise; changes in a name come on top.
# UniProt P51450: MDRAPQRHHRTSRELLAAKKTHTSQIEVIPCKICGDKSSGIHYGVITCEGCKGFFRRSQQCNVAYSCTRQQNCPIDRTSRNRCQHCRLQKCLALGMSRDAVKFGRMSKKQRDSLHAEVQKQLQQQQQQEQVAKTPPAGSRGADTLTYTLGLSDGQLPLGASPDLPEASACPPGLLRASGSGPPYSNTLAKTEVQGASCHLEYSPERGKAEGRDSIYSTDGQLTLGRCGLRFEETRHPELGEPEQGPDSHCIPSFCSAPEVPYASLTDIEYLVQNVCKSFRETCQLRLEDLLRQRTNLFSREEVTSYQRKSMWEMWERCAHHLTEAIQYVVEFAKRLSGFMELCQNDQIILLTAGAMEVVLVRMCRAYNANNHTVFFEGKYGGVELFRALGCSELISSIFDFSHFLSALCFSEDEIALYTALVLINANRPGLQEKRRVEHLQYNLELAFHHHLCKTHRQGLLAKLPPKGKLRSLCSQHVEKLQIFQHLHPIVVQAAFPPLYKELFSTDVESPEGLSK
# The campaign covered roughly 310,000 compounds. About 17,000 (5.5%) were called active. Inconclusive results, whose numbers are uncertain, are shown with a selection of clear calls. Calls come from the whole dose curve; as a rule, active = well fitted inhibition curve with a large enough effect; inconclusive = small, poorly fitted or top-dose-only effect, or effect the other way; inactive = no such curve, though single readings can be large or run the other way. Where the call is inconclusive, the potency comes from a doubtful curve fit.
# Target: Nuclear receptor ROR-gamma (Mus musculus) (UniProt P51450)
# Test: qHTS for inhibitors of ROR gamma transcriptional activity; note: nearly all actives have a fitted effect of over 60% in size
# Conditions: Drosophila S2 Gal4-RORgamma UAS-luciferase reporter, 20 h; activity change, negative = inhibition: at 53.6 µM (top of the series)
# Procedure, shortened: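 In this cell-based reporter format, copper sulfate (700 uM final) drives Gal4–ROR gamma fusion expression from a metallothionein promoter in Drosophila Schneider cells; compounds preincubated 1 hr, reporter read after 20 hr at ambient temperature.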
# % is set by controls: 0 for no effect and ±100 for the full control effect; potency is the fitted concentration of half-maximal effect.
SMILES,Potency,"activity change, negative = inhibition"
Cc1nnc(SCc2nnc(-c3ccccc3Br)o2)n1-c1ccccc1,"inconclusive: 1.78 µM [activator, partial curve, poor fit]",
O=C(N1CCC(n2nc(-c3ccccc3)oc2=O)CC1)C1(c2ccc(Cl)cc2)CC1,,inactive: -19%
COc1ccc(-n2c(Cn3nnc4ccccc43)n[nH]c2=S)cc1,,inactive: -39.6%
Cn1ccnc1-c1nc2ccccc2[nH]c1=O,active: 3.55 µM,
CCCc1nn2c(=O)cc(CSCC(=O)Nc3nnc(CC)s3)nc2s1,,inactive: -3.49%
CCCCOC(=O)C1=C(C)NC(=O)NC1c1ccc(N(C)C)cc1 (stereo not drawn),"inconclusive: 17.8 µM [activator, single point]",
COC(=O)Cn1c(CCS(=O)(=O)c2ccc(Cl)cc2)nc2ccccc21,active: 3.55 µM,
CCO/C=C1/C(=O)N(C(C)=O)c2ccccc21,"inconclusive: 0.794 µM [activator, single point]",
COc1ccccc1C1CCN(Cc2ccc(Cl)cc2Cl)CC1,,inactive: 0.432%
COc1ccc(COc2cccc3ccc(C)nc23)cc1F,,inactive: -32%
CCC(C(=O)NCCc1ccc(C)cc1)n1nc(C)c2c(C)n(-c3ccccc3)nc2c1=O (stereo not drawn),"inconclusive: 11.2 µM [activator, partial curve, poor fit]",
COc1ccc(CCNCC(=O)Nc2ccc(C)c(S(=O)(=O)N(C)C)c2)cc1OC,,inactive: -8.38%
Cc1ccc(N2C(=O)N(CC(=O)NCc3ccc(Cl)cc3)C(=O)C2C)cc1 (stereo not drawn),"inconclusive: 22.4 µM [activator, single point]",
COc1cc(/C=C2\SC(=S)NC2=O)ccc1OS(=O)(=O)c1ccccc1,"inconclusive: 11.2 µM [activator, partial curve]",
O=C(CSc1n[nH]c(-c2ccncc2)n1)c1ccccc1,"inconclusive: 0.112 µM [activator, full curve, poor fit]",
CCOC(=O)C1(Cc2ccc(Cl)cc2)CCN(C(=O)c2sc(C)nc2C)CC1,"inconclusive: 12.6 µM [activator, single point]",
CCN1C(=O)/C(=C2/Sc3ccccc3N2CC)S/C1=N\c1ncn[nH]1,active: 11.2 µM,
N#Cc1cccc(NC(=O)Cn2cnc(S(=O)(=O)N3CCOCC3)c2)c1,,inactive: -16.4%
CC(=O)COC(=O)c1cc(-c2ccc(C)cc2)nc2ccccc12,"inconclusive: 7.08 µM [inhibitor, full curve, poor fit]",
Nc1ccccc1NC1CCCCC1,"inconclusive: 10 µM [inhibitor, partial curve]",
CCCC(c1nnnn1C1CCCCC1)N1CCN(C(=O)c2ccco2)CC1 (stereo not drawn),"inconclusive: 0.501 µM [inhibitor, full curve, poor fit]",
CCCC(=O)Nc1nc(-c2ccc3c(c2)OCCO3)cs1,"inconclusive: 1.41 µM [activator, partial curve]",
S=C(NCCC1=CCCCC1)NCc1ccco1,active: 7.08 µM,
COc1ccc(NC(=O)C(c2ccc(OC)cc2)N(C)C(=O)CC2NC(=O)NC2=O)cc1 (stereo not drawn),,inactive: -8.45%
COc1ccc(C(=O)NC(C)Cn2nc(C)cc2C)cc1OC1CCN(C(C)=O)CC1 (stereo not drawn),,inactive: 4.79%
COc1ccc(-c2noc(CCC(=O)NCCCN3CCN(c4ccc(F)cc4)CC3)n2)cc1,"inconclusive: 14.1 µM [activator, single point]",

SMILES,Potency,"activity change, negative = inhibition"
O=C(Nc1ccc(NS(=O)(=O)c2ccccc2)cc1)c1cccnc1,,inactive: 8.89%
CCOc1ccc(NC(=O)c2ccccc2SC)cc1,,inactive: 4.21%
COc1ccc(C(=O)Nc2ccc3ccccc3c2)cc1,"inconclusive: 11.2 µM [inhibitor, single point]",
CCOC(=O)c1ccc(COC(=O)CCc2nc(-c3ccccc3)c(-c3ccccc3)o2)cc1,"inconclusive: 22.4 µM [inhibitor, single point]",
O=C(CC1S/C(=N/N=C/c2ccco2)NC1=O)Nc1cccc(Cl)c1Cl (stereo not drawn),active: 20 µM,
Cc1ccc(N2C(=O)c3ccc(N)cc3C2=O)cc1C,"inconclusive: 6.31 µM [activator, single point]",
COCc1ccc(CN2CCc3c([nH]c4ccccc34)C2C(C)(C)C)o1 (stereo not drawn),active: 11.2 µM,
CCCCn1c(N)c(N(CCC(C)C)C(=O)CSc2nnc(C)s2)c(=O)[nH]c1=O,"inconclusive: 1 µM [inhibitor, single point]",
CS(=O)(=O)CCCCN=C=S,active: 12.6 µM,
C/C(=N\NC(=O)c1ccc([N+](=O)[O-])cc1)c1c(O)cc(C)oc1=O,active: 0.631 µM,
CCOc1ccc(Oc2ccc(C(F)(F)F)cc2N)cc1,"inconclusive: 11.2 µM [activator, partial curve]",
Cc1cc(NC(=O)c2ccc(Cl)cc2)cc(C)c1OCC(=O)N1CCOCC1,"inconclusive: 35.5 µM [inhibitor, single point]",
O=C(CSc1nnc(-c2ccncc2)n1Cc1ccco1)N1c2ccccc2Sc2ccc(Cl)cc21,"inconclusive: 35.5 µM [inhibitor, single point]",
COCCOC(=O)C1=C(C)N(c2ccccc2)C(=S)NC1c1ccccc1C(F)(F)F (stereo not drawn),active: 17.8 µM,
CCOc1ccc(S(=O)(=O)N2CCN(C)CC2)c(C)c1C,"inconclusive: 3.55 µM [inhibitor, partial curve, poor fit]",
Cc1cccc(NC(=O)c2cnc3sccn3c2=O)c1,,inactive: -21.5%
COc1cccc(CNC(=O)c2cc(S(=O)(=O)N3CCCC3)cn2C)c1,"inconclusive: 31.6 µM [activator, single point]",
COc1ccccc1CC(=O)Nc1ccc(-c2nnc(-c3ccco3)o2)cc1,,inactive: -1.84%
Cc1ccc(COc2ccc(/C=N/NC(=O)CN3CCCCC3)cc2)cc1,"inconclusive: 35.5 µM [inhibitor, single point]",
CCOC(=O)C1(CCOc2ccccc2)CCN(CCCn2cccn2)CC1,,inactive: 5.21%
CC(c1n[nH]c(=S)n1-c1ccc(Cl)cc1)N(C)C (stereo not drawn),active: 12.6 µM,
CCc1ccc(NC(=S)N(Cc2ccccc2)Cc2ccccn2)cc1,active: 0.316 µM,
CCc1ccc(N(CC(=O)NC(C)(C)C)C(=O)CCC(=O)Nc2ccccn2)cc1,,inactive: 42.9%
Cn1cnnc1SCC(=O)N1CCN(C(=O)c2ccco2)CC1,,inactive: -4.27%
Cc1ccc(S(=O)(=O)NC(C)CCc2ccccc2)cc1 (stereo not drawn),,inactive: -3.3%
O=C(NCc1ccco1)Nc1ccccc1Cl,"inconclusive: 14.1 µM [activator, partial curve]",

SMILES,Potency,"activity change, negative = inhibition"
O=C(c1ccc(=O)oc1)N1CCOCC1,,inactive: -6.91%
CC(Nc1nc(C(F)(F)F)nc2ccccc12)c1cccs1 (stereo not drawn),"inconclusive: 3.16 µM [activator, partial curve]",
CN(Cc1nc(Cc2ccccc2F)no1)Cc1cccc2ncccc12,"inconclusive: 11.2 µM [activator, single point]",
COc1ccccc1NC(=O)NNC(=O)CN1C(=O)COc2ccccc21,,inactive: -0.591%
O=C(O)CSc1c(-c2cccs2)[nH]c2ccccc12,,inactive: -23.1%
COc1ccc(C(=O)Nc2ccccc2)cc1S(=O)(=O)Nc1cc(C)on1,,inactive: -27%
C(=N/Nc1nc(-c2ccccc2)cc(-c2ccccc2)n1)/c1cccnc1,"inconclusive: 35.5 µM [inhibitor, single point]",
CN(CC(=O)NC1CCCCC1)S(=O)(=O)c1ccc(Br)s1,"inconclusive: 22.4 µM [inhibitor, single point]",
CC(=O)Nc1ccc(S(=O)(=O)Nc2ccc(Cl)cn2)cc1,,inactive: 23.8%
Cc1cc(NC(=O)c2cc(Cl)ccc2Cl)no1,,inactive: -19.6% [at 10 µM]
CC(=O)c1ccc(S(=O)(=O)N(C)CC(=O)NCC2CCCCC2)cc1,"inconclusive: 15.8 µM [activator, single point]",
CN(C)N1C(=O)CC(N2CCCCC2)C1=O (stereo not drawn),"inconclusive: 17.8 µM [inhibitor, single point]",
COc1ccc(NC(=O)C2CC(=O)n3ncnc3N2)cc1 (stereo not drawn),"inconclusive: 8.91 µM [inhibitor, partial curve]",
Cc1oc(-c2nc3ccccc3n2C)cc1C(=O)c1ccccc1,active: 11.2 µM,
COc1ccc(C)cc1NCc1cccc(OC)c1OC,active: 17.8 µM,
O=C(CN1C(=O)C(=O)N(Cc2ccccc2)C1=O)Nc1cc(Cl)cc(Cl)c1,"inconclusive: 20 µM [inhibitor, partial curve]",
Cc1ccc2nc(N3CCOCC3)c(C=O)cc2c1,"inconclusive: 5.01 µM [activator, full curve]",
N#CC(=C1N=c2ccccc2=N1)c1c(O)[nH]c2ccccc12,"inconclusive: 0.891 µM [activator, full curve, poor fit]",
CCN(CC)CCCn1c(=S)[nH]c2cc(Cl)ccc2c1=O,active: 10 µM,
COc1ccc(C(N)=S)c(OC)c1,"inconclusive: 17.8 µM [inhibitor, single point]",
CC(C)(C)c1[nH]nc2c1C(c1ccccc1OC(=O)N1CCOCC1)C(C#N)=C(N)O2 (stereo not drawn),"inconclusive: 31.6 µM [activator, partial curve, poor fit]",
Cc1ccccc1/C=N/Nc1nc2ccccc2[nH]1,active: 7.08 µM,
CCN(CC)c1ccc(/C=C2/C(=O)ON=C2C)cc1,"inconclusive: 14.1 µM [activator, partial curve]",
CCN(C(=O)C1CCCN(c2nc(-c3ccc(OC)cc3)no2)C1)c1ccccc1F (stereo not drawn),"inconclusive: 35.5 µM [activator, single point]",
COc1ccc(NS(=O)(=O)c2cccc(NC(=O)NC3CCCCC3)c2)cc1,"inconclusive: 12.6 µM [activator, partial curve]",
Cn1c(=O)n(C)c2cc(NS(=O)(=O)c3ccc(Cl)s3)ccc21,,inactive: -37%

# In the list so far, these have a tert-butyl group:
SMILES,Potency,"activity change, negative = inhibition"
COCc1ccc(CN2CCc3c([nH]c4ccccc34)C2C(C)(C)C)o1 (stereo not drawn),active: 11.2 µM,
CCc1ccc(N(CC(=O)NC(C)(C)C)C(=O)CCC(=O)Nc2ccccn2)cc1,,inactive: 42.9%
CC(C)(C)c1[nH]nc2c1C(c1ccccc1OC(=O)N1CCOCC1)C(C#N)=C(N)O2 (stereo not drawn),"inconclusive: 31.6 µM [activator, partial curve, poor fit]",
